Assay results published in patent US20230390463A1, “TISSUE SCAFFOLDS” (JD BIOMEDICAL SOLUTIONS LTD., priority 2020, published 2023).
Some of these results come from one statement about several compounds together.

Assay: Turbiscan emulsion stability (TSI) of decane/buffer emulsions stabilised with surfactant
Type: physicochemical
Details: 70% v/v oil fraction, 0.1% (v/v) surfactant, vortexed, 15 minutes after emulsification
Description: Stability was herein reported using the Turbiscan™ stability index (TSI). This non-destructive, non-invasive technique gives the stability of the sample over its whole selected height as a function of transmitted and backscattered light compared to the same measurements at the previous timepoint. Kinetic stability is built up over sequential scans. The pattern of change across the height of the sample gives a ‘fingerprint’ characteristic of the mode of destabilisation. TSI is defined in equation 1: […]
where scani is the backscattering value at a given timepoint, scani-1 is the backscattering value from the previous timepoint, h is the height of the scan and H is the total sample height from the first to the last scan. TSI is the sum of the differences between sequential scans and thus represents the stability of the sample over a defined timeframe. TSI reduces with increasing stability. […]
3 ml of the sample was pipetted into a borosilicate glass cuvette, taking care to maintain a clean meniscus, and analysed using Turbiscan™ LAB Analyser (Formulation, Toulouse, France) scanning every 30 seconds for a total of 15 minutes. […]
Stability was measured using the Turbiscan™ static multiple light scattering analyser and expressed using the Turbiscan stability index (TSI) which reflects the change in transmitted and backscattered light across the height of a sample over a period of time. […]

Substance | TSI
Octylphenol ethoxylate [Triton X-102] | < 3
Polyethylene glycol tert-octylphenyl ether [Triton X-114] | < 3
